From the supplement of paper PMC3334620
Over roughly 33,000 sequences, “E-score (-0.5 to 0.5)” has its median near -0.015; the highest 2% begin near 0.3. The list shows a part of the results.

Molecular target: T1, Abf1 (UniProt P14164)
T1 sequence: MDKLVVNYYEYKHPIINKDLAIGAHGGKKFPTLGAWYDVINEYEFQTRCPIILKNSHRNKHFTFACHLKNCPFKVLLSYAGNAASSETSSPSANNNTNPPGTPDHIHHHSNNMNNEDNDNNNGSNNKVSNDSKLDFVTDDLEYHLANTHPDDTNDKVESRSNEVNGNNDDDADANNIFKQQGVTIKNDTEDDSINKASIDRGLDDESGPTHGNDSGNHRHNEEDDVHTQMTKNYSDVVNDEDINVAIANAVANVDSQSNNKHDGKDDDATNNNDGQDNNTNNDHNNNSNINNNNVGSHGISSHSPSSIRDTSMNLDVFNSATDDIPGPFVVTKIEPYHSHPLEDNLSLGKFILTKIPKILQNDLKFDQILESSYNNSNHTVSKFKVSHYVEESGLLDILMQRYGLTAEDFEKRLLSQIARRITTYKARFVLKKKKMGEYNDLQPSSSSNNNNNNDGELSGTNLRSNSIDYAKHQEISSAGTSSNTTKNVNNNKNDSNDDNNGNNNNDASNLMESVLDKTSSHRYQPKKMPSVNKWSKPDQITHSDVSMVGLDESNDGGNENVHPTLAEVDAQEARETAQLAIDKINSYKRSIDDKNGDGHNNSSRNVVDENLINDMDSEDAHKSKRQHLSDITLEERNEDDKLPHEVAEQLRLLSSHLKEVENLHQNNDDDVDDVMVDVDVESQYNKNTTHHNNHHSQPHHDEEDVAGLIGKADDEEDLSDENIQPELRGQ
Experiment: PBM E-score (8-mer binding enrichment) (E-score (-0.5 to 0.5)); higher = stronger / more preferred TF binding
Conditions: protein concentration: 200 nM; construct: GST-full length
In short: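 Masliner-normalised scans of fluorescent anti-GST signal were the basis for scoring. That signal came from GST-tagged yeast transcription factors applied at about 100-200 nM to double-stranded universal all-10-mer Agilent arrays on fresh or once-stripped slides. Each ungapped eight-base word, pooled with its reverse complement, received an E-score from the Universal PBM Analysis Suite.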

Sequence	PBM E-score
AGGGCGCA	-0.125
CTGAGCGA	0.119
GAGGCCTA	-0.0355
CACAACGA	0.00899
CAAGGTGG	-0.0477
CGGTTTCA	-0.124
CGCTGCCC	-0.331
CCTTGTGA	0.159
AAATCGCA	-0.0291
AGAAATTC	-0.0184
AGCTAAGG	-0.173
ACCACCAC	-0.132
CGGGGTAG	-0.0924
AATTATTC	0.142
CAGTGCCG	0.0401
GCAGATTA	0.0194
AGTACGGA	0.118
ACTCAGAC	-0.149
ACAGCCCG	-0.263
AAAACAGT	-0.0562
ATAGTCTC	-0.0195
AAAGCTTT	-0.0815
ACGCCTTG	-0.0276
AGTCTGAA	0.103

Four records drawn at random from those above:
Sequence	PBM E-score
AAAACAGT	-0.0562
AGCTAAGG	-0.173
ACGCCTTG	-0.0276
AGGGCGCA	-0.125

The list continues.

Sequence	PBM E-score
AAAAGGCC	0.0409
AGAGAGAA	-0.123
CTGATGGA	-0.239
AATCTCTG	-0.0939
CCGGCTGC	-0.0276
CAATAAAA	0.124
AGAGGAAA	0.136
CTGTAGAA	-0.214
CCAATTAA	0.123
AAAAACGG	0.199
AGTGTTAA	0.0847
AACTCCGA	-0.0942
ACTAACAG	0.151
GAGTCAGA	0.0998
ACACAGAG	-0.0877
CCGTTATA	0.195
ACTGAGCC	-0.129
ATGCATTA	0.0378
GATAGCAA	0.072
AGGACAAT	0.125
ACAACTGC	-0.0326
AAATACAT	0.0344
ATGATCTG	0.235
AGGGACCT	0.0273

Sequence	PBM E-score
CCGGGAGC	-0.135
CGCTGTGC	-0.107
CAACATCC	-0.204
CGACAAGC	-0.157
GAAGTTAA	-0.109
CAAACCAC	-0.0455
ACATCAAT	0.221
AGGCTGAG	-0.121
CCAAAGTA	-0.163
ACATCAAC	0.0683
AAACCCAG	-0.0247
CCACCAAG	-0.172
GACCAAGC	-0.0968
AATAACAC	-0.216
ATAGCCAG	-0.249
GAAAAGGA	-0.138
AACATCCA	-0.00442
ATCAATGC	0.0491
GGACAAAC	0.0295
ATTTGTGA	0.0665
AAATTGAT	0.135
TCCTGCCA	-0.254
GAGCTAAA	-0.072
CCTGATCG	-0.106

Sequence	PBM E-score
ACGGGTCA	-0.0888
ACCTCCAA	0.0943
ATGGAAAA	0.177
AATCGAAC	-0.094
GAGTGGTA	-0.111
GTCCCCAC	-0.0723
ATGTCAAT	0.079
AGCCTGCG	-0.225
ATCCCATC	-0.153
GTTACAAC	0.0759
ATCTTCGG	0.0934
AAACTAAT	0.197
ATTTGGGA	0.0496
ACGTGCCT	-0.057
ACATCAGC	-0.0459
CGGACCCC	-0.261
GACTAGAA	-0.0234
ATCGGCGG	-0.109
CTTGGGTA	0.101
CAGTTGTC	-0.106
GGACTGCA	-0.103
GTATCAGA	0.0709
